In PMC7845594, “Novel Immune Modulators Enhance Caenorhabditis elegans Resistance to Multiple Pathogens” (mSphere, 2021):
This continues a long series; more values of the same kind are listed elsewhere.

Tested on: C. elegans transcriptome
Experiment: Transcriptome profiling (Affymetrix microarrays), differentially expressed genes
Type: in vivo, Caenorhabditis elegans
Settings: downregulated genes
Protocol: To gain additional insight into the effect of LK molecules on C. elegans, young-adult, wild-type worms were treated with each drug at 100 µM for 8 h in the absence of pathogen. RNA was collected, and transcriptome profiling was performed.
Data were determined using Affymetrix microarrays, as described in Materials and Methods. Download Table S3, XLSX file, 0.07 MB.
Transcriptome profiling was performed on ∼6,000 wild-type, young adult worms incubated with either LK molecules or DMSO for 8 h. RNA isolation was performed using TRIzol extraction, followed by cleanup using RNeasy columns according to the manufacturer’s protocol. Each condition was analyzed in triplicate. Microarray data have been deposited in the GEO database, accession number GSE137516. […] Clustering and generation of the heat map was performed using Cluster 3.0 ([98]) and Treeview ([99]), respectively. Fold change of genes were normalized to average fold change of that gene over all clustered conditions. Genes and conditions were clustered using Euclidean distance and average linkages. […] Microarray data for non-LK molecules were collected from GEO omnibus. WormEXP was used as a secondary method for confirming statistical significance of potential pathways stimulated by each of the LK molecules ([100]). Gene ontologies were generated using DAVID ([101], [102]).

CNC(=O)Oc1c(Br)cc2sc(=O)oc2c1Br [LK34]
Fold Change (Affy_ID 171811_s_at, listed under genes K01D12.7 (LK34, LK38), C57047 (LK35), K01D12.15 (LK38)): 0.2752 | Fold Change (Affy_ID 176276_s_at, listed under gene Y69A2AR.25 (LK34) or Y69A2AR.12 (LK38)): 0.3954 | Fold Change (Affy_ID 192118_s_at, listed under gene F10C1.7 (LK34, LK35) or F10C1.8 (LK38)): 0.2969 | Fold Change (Affy_ID 194255_x_at, listed under gene F22A3.6 (LK34, LK35) or C68743 (LK38)): 0.4293 | Fold Change (Gene AC3.7, Affy_ID 190879_at): 0.3787 | Fold Change (Gene B0035.13, Affy_ID 188123_at): 0.2094 | Fold Change (Gene B0218.1, Affy_ID 188358_at): 0.1728 | Fold Change (Gene B0379.1, Affy_ID 179086_s_at): 0.4182 | Fold Change (Gene B0507.8, Affy_ID 180569_at): 0.1942 | Fold Change (Gene C04G2.4, Affy_ID 172853_x_at): 0.2092 | Fold Change (Gene C05C10.4, Affy_ID 189921_at): 0.2024 | Fold Change (Gene C08E3.1, Affy_ID 172309_x_at): 0.114 | Fold Change (Gene C08E3.13, Affy_ID 172565_x_at): 0.1205 | Fold Change (Gene C08F11.13, Affy_ID 175229_at): 0.2724 | Fold Change (Gene C14C6.2, Affy_ID 183566_at): 0.366 | Fold Change (Gene C17B7.2, Affy_ID 181325_s_at): 0.2804 | Fold Change (Gene C24D10.7, Affy_ID 172569_x_at): 0.2356 | Fold Change (Gene C24D10.8, Affy_ID 172527_x_at): 0.238 | Fold Change (Gene C24G6.6, Affy_ID 180541_s_at): 0.3761 | Fold Change (Gene C27H5.4, Affy_ID 181334_s_at): 0.3238 | Fold Change (Gene C28C12.5, Affy_ID 185774_s_at): 0.4973 | Fold Change (Gene C29F4.2, Affy_ID 190884_at): 0.2089 | Fold Change (Gene C32E8.7, Affy_ID 188220_at): 0.4493 | Fold Change (Gene C33F10.9, Affy_ID 172834_x_at): 0.2463 | Fold Change (Gene C34F11.4, Affy_ID 172885_x_at): 0.257 | Fold Change (Gene C34F11.6, Affy_ID 172896_x_at): 0.2137 | Fold Change (Gene C35A5.6, Affy_ID 179396_at): 0.15 | Fold Change (Gene C35D10.11, Affy_ID 172630_x_at): 0.1378 | Fold Change (Gene C46H11.4, Affy_ID 176895_s_at): 0.4829 | Fold Change (Gene C48B4.10, Affy_ID 187264_at): 0.4681 | Fold Change (Gene CTEL54X.1, Affy_ID 185910_at): 0.3393 | Fold Change (Gene D1086.2, Affy_ID 177478_at): 0.2731 | Fold Change (Gene D2024.7, Affy_ID 187178_s_at): 0.4525 | Fold Change (Gene D2089.3, Affy_ID 178891_at): 0.432 | Fold Change (Gene F07A11.5, Affy_ID 188623_at): 0.4695 | Fold Change (Gene F08G2.1, Affy_ID 192280_s_at): 0.2639 | Fold Change (Gene F08G2.2, Affy_ID 172835_x_at): 0.4147 | Fold Change (Gene F08G2.3, Affy_ID 172899_x_at): 0.4223 | Fold Change (Gene F08H9.8, Affy_ID 189993_at): 0.2938 | Fold Change (Gene F09C12.7, Affy_ID 172687_x_at): 0.2916 | Fold Change (Gene F11E6.3, Affy_ID 179439_s_at): 0.383 | Fold Change (Gene F11E6.5, Affy_ID 189318_at): 0.3839 | Fold Change (Gene F13B6.3, Affy_ID 180766_at): 0.1138 | Fold Change (Gene F14F7.1, Affy_ID 188356_at): 0.3174 | Fold Change (Gene F16F9.4, Affy_ID 188201_at): 0.3145 | Fold Change (Gene F17C11.4, Affy_ID 180312_at): 0.308 | Fold Change (Gene F18G5.6, Affy_ID 182444_at): 0.4672 | Fold Change (Gene F20D6.5, Affy_ID 182519_at): 0.1522 | Fold Change (Gene F26G1.7, Affy_ID 172882_x_at): 0.2257 | Fold Change (Gene F27C8.4, Affy_ID 179424_at): 0.3297 | Fold Change (Gene F28H1.2, Affy_ID 188459_s_at): 0.3476 | Fold Change (Gene F28H7.3, Affy_ID 187996_s_at): 0.208 | Fold Change (Gene F32B6.6, Affy_ID 172854_x_at): 0.2349 | Fold Change (Gene F32G8.6, Affy_ID 190591_at): 0.2535 | Fold Change (Gene F36D3.9, Affy_ID 189469_at): 0.02885 | Fold Change (Gene F37A8.4, Affy_ID 188068_at): 0.07278 | Fold Change (Gene F38A3.1, Affy_ID 188281_s_at): 0.1533 | Fold Change (Gene F38E11.2, Affy_ID 192323_at): 0.1286 | Fold Change (Gene F40B5.1, Affy_ID 187391_at): 0.2878 | Fold Change (Gene F41F3.4, Affy_ID 189545_s_at): 0.3333 | Fold Change (Gene F43C11.7, Affy_ID 186263_at): 0.4218 | Fold Change (Gene F44C8.8, Affy_ID 189999_at): 0.3136 | Fold Change (Gene F44D12.5, Affy_ID 172333_x_at): 0.175 | Fold Change (Gene F44D12.7, Affy_ID 172327_x_at): 0.1686 | Fold Change (Gene F45D11.15, Affy_ID 186801_s_at): 0.1089 | Fold Change (Gene F45E4.8, Affy_ID 183438_s_at): 0.3976 | Fold Change (Gene F47B10.2, Affy_ID 191301_s_at): 0.2777 | Fold Change (Gene F48G7.10, Affy_ID 184636_at): 0.2176 | Fold Change (Gene F49E12.10, Affy_ID 190009_at): 0.06655 | Fold Change (Gene F52H3.7, Affy_ID 194236_x_at): 0.4356 | Fold Change (Gene F53A9.6, Affy_ID 172363_x_at): 0.3981 | Fold Change (Gene F53A9.8, Affy_ID 180612_s_at): 0.3337 | Fold Change (Gene F53F4.13, Affy_ID 182491_at): 0.3071 | Fold Change (Gene F54F11.2, Affy_ID 191753_at): 0.4195 | Fold Change (Gene F55F3.2, Affy_ID 189534_at): 0.3116 | Fold Change (Gene F55G1.3, Affy_ID 172702_x_at): 0.4079 | Fold Change (Gene F58A4.7, Affy_ID 171841_x_at): 0.3786 | Fold Change (Gene F58A6.8, Affy_ID 172889_x_at): 0.2151 | Fold Change (Gene F58A6.9, Affy_ID 172743_x_at): 0.2491 | Fold Change (Gene F58E10.7, Affy_ID 184175_at): 0.2647 | Fold Change (Gene F58G1.4, Affy_ID 177978_at): 0.3408 | Fold Change (Gene H02I12.6, Affy_ID 172891_x_at): 0.4351 | Fold Change (Gene H12C20.3, Affy_ID 192782_at): 0.3312 | Fold Change (Gene K02D7.1, Affy_ID 189003_s_at): 0.4499 | Fold Change (Gene K03H6.2, Affy_ID 183309_at): 0.2526 | Fold Change (Gene K05F1.2, Affy_ID 172815_x_at): 0.2831 | Fold Change (Gene K05F1.7, Affy_ID 172904_x_at): 0.1817 | Fold Change (Gene K07E8.3, Affy_ID 180256_at): 0.051 | Fold Change (Gene K07F5.2, Affy_ID 172852_x_at): 0.2244 | Fold Change (Gene K07F5.3, Affy_ID 172907_x_at): 0.2527 | Fold Change (Gene K07F5.5, Affy_ID 172245_x_at): 0.3514 | Fold Change (Gene K08F4.8, Affy_ID 172934_x_at): 0.2062 | Fold Change (Gene K11E4.2, Affy_ID 190223_at): 0.4122 | Fold Change (Gene M01D7.5, Affy_ID 173242_s_at): 0.2679 | Fold Change (Gene T03D8.2, Affy_ID 190280_at): 0.4804 | Fold Change (Gene T07C4.4, Affy_ID 178149_s_at): 0.4857 | Fold Change (Gene T07G12.5, Affy_ID 188496_s_at): 0.08873 | Fold Change (Gene T08B1.6, Affy_ID 192296_at): 0.2707 | Fold Change (Gene T08B2.12, Affy_ID 184685_s_at): 0.1097 | Fold Change (Gene T09A12.2, Affy_ID 190674_at): 0.4382 | Fold Change (Gene T09F5.9, Affy_ID 188947_at): 0.3188 | Fold Change (Gene T13F2.10, Affy_ID 172906_x_at): 0.2521 | Fold Change (Gene T14B4.4, Affy_ID 190598_at): 0.3688 | Fold Change (Gene T15B7.9, Affy_ID 182858_at): 0.306 | Fold Change (Gene T20B3.2, Affy_ID 188278_s_at): 0.4132 | Fold Change (Gene T20D4.11, Affy_ID 184438_at): 0.06663 | Fold Change (Gene T21D12.9, Affy_ID 186872_s_at): 0.4251 | Fold Change (Gene T22H2.6, Affy_ID 180962_s_at): 0.4341 | Fold Change (Gene T23B12.8, Affy_ID 184855_at): 0.1217 | Fold Change (Gene T23F4.1, Affy_ID 180223_s_at): 0.03953 | Fold Change (Gene T23F4.3, Affy_ID 179815_at): 0.05033 | Fold Change (Gene T27A10.7, Affy_ID 186153_s_at): 0.3368 | Fold Change (Gene T27E4.7, Affy_ID 173757_s_at): 0.2826 | Fold Change (Gene T28H11.6, Affy_ID 172704_x_at): 0.3753 | Fold Change (Gene W03C9.3, Affy_ID 189720_s_at): 0.4449 | Fold Change (Gene W04B5.2, Affy_ID 180561_at): 0.4474 | Fold Change (Gene W07B8.5, Affy_ID 191887_s_at): 0.3128 | Fold Change (Gene W07E6.1, Affy_ID 189661_at): 0.4658 | Fold Change (Gene Y40D12A.2, Affy_ID 191017_at): 0.4317 | Fold Change (Gene Y44A6C.1, Affy_ID 182843_at): 0.4517 | Fold Change (Gene Y45F10A.5, Affy_ID 184558_at): 0.1996 | Fold Change (Gene Y46G5A.21, Affy_ID 186464_s_at): 0.4571 | Fold Change (Gene Y48A6B.7, Affy_ID 193926_at): 0.3048 | Fold Change (Gene Y51A2D.13, Affy_ID 192992_at): 0.3832 | Fold Change (Gene Y51H4A.24, Affy_ID 172511_x_at): 0.4578 | Fold Change (Gene Y51H4A.7, Affy_ID 180145_s_at): 0.3224 | Fold Change (Gene Y54G2A.7, Affy_ID 174102_at): 0.3028 | Fold Change (Gene Y59H11AM.1, Affy_ID 172113_x_at): 0.2747 | Fold Change (Gene Y71G12B.4, Affy_ID 176544_at): 0.3554 | Fold Change (Gene Y71H2AL.1, Affy_ID 172177_x_at): 0.4226 | Fold Change (Gene Y71H2AM.13, Affy_ID 176285_s_at): 0.4452 | Fold Change (Gene Y105C5A.13, Affy_ID 172627_x_at): 0.07707 | Fold Change (Gene Y105C5A.24, Affy_ID 187121_at): 0.4643 | Fold Change (Gene Y119D3B.13, Affy_ID 175112_s_at): 0.3133 | Fold Change (Gene ZC416.6, Affy_ID 188470_s_at): 0.3851 | Fold Change (Gene ZK112.1, Affy_ID 175995_at): 0.2896 | Fold Change (Gene ZK131.4, Affy_ID 190307_s_at): 0.3291 | Fold Change (Gene ZK1248.4, Affy_ID 172734_x_at): 0.2861 | Fold Change (Gene ZK1248.6, Affy_ID 172887_x_at): 0.1841 | Fold Change (Gene ZK1251.6, Affy_ID 172938_x_at): 0.2528
